The values that follow come from paper doi:10.1101/2021.01.24.427949.

Results are given in words; binding and its absence hold for the method and conditions named. Binding seen in cells or lysates may run through a third protein. Some binding calls cover weakened binding; strength is not graded here.

This experiment addresses T1, phosphoglycerate dehydrogenase (Phgdh) (mouse (endogenous in 4T1 primary tumor)) (UniProt Q61753).
T1 sequence: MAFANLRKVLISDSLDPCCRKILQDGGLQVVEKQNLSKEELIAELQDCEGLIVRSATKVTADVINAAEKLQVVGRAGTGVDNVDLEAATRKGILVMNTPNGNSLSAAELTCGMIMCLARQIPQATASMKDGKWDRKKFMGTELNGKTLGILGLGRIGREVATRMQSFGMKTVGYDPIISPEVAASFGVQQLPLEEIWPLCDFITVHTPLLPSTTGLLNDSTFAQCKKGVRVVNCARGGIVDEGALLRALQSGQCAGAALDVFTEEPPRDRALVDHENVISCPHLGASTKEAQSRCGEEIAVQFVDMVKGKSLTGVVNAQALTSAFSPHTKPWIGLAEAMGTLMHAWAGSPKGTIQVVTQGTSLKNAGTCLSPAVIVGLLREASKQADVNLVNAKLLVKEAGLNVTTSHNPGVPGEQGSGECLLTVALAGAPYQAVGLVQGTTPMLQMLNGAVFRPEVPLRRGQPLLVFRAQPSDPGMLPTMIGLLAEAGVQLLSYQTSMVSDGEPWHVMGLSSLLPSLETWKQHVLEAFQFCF
Nature of the experiment: co-IP.

B1: phosphofructokinase isoform PfkP (enzyme, UniProt Q9WUA3 1-784)
chain: MSDLDSSSSSAYPKYLEHLSGDGKAIGVLTSGGDAQGMNAAVRAVVRMGIYTGAKVYFIYEGYQGLVDGGSNIVEAKWDCVSSILQVGGTIIGSARCKAFRSREGRLKAACNLARLGITNLCVIGGDGSLTGANLFRKEWSGLLEELARNGDIDNDTVQKYSYLNVVGMVGSIDNDFCGTDMTIGTDSALHRIIEVVDAIMTTAQSHQRTFVLEVMGRHCGYLALVSALTCGADWVFLPESPPEEDWEENMCLKLSENRARKKRLNIIIVSEGAIDMQNKPITSEKIKELVVKNLGFDTRVTILGHVQRGGTPSAFDRILASRMGVEAVIALLEATPETPACVVSLRGNQAVRLPLMECVQMTQDVQKAMDERRFKEAVKLRGRRFEGNLNTYKRLAIKLPDEKIVKSNCNVAVINVGAPAAGMNAAVRSAVRVGIADGHKMFAIYDGFEGFANGQIKEIGWADVGGWTGQGGSILGTKRTLPGKYLEKIAEQMHSHSINALLIIGGFEAYLGLLELAAAREKHEAFCVPMVMVPATVSNNVPGSDFSIGADTALNTITDTCDRIKQSASGTKRRVFIIETMGGYCGYLANMGALAAGADAAYIFEEPFDIGDLQSNVVHLTEKMKTSIQRGLVLRNESCSVNYTTDFIYQLYSEEGKGVFDCRKNVLGHMQQGGAPSPFDRNFGTKISAKAMEWISAKLKGSQGTGKKFVSDDSICVLGICKRDLLFQPVAELKKVTDFEHRIPKEQWWLKLRPIMKILAKYEASYDMSDSGKLESLQHHEEL
As for B1, the binding result was “binds”.

B2: phosphofructokinase isoform PfkM (enzyme, UniProt P47857 1-780)
chain: MTHEEHHAAKTLGIGKAIAVLTSGGDAQGMNAAVRAVVRVGIFTGARVFFVHEGYQGLVDGGEHIREATWESVSMMLQLGGTVIGSARCKDFREREGRLRAAHNLVKRGITNLCVIGGDGSLTGADTFRSEWSDLLNDLQKDGKITAEEATKSSYLNIVGLVGSIDNDFCGTDMTIGTDSALHRIVEIVDAITTTAQSHQRTFVLEVMGRHCGYLALVTSLSCGADWVFIPECPPDDDWEEHLCRRLSETRTRGSRLNIIIVAEGAIDKNGKPITSEDIKNLVVKRLGYDTRVTVLGHVQRGGTPSAFDRILGSRMGVEAVMALLEGTPDTPACVVSLSGNQAVRLPLMECVQVTKDVTKAMDEKRFDEAIKLRGRSFMNNWEVYKLLAHVRPPVSKGGLHTVAVMNVGAPAAGMNAAVRSTVRIGLIQGNRVLVVHDGFEGLAKGQIEEAGWSYVGGWTGQGGSKLGTKRTLPKKNLEQISANITKFNIQGLVIIGGFEAYTGGLELMEGRKQFDELCIPFVVIPATVSNNVPGSDFSIGADTALNTICTTCDRIKQSAAGTKRRVFIIETMGGYCGYLATMAGLAAGADAAYIFEEPFTIRDLQVNVEHLVQKMKTTVKRGLVLRNEKCNENYTTDFIFNLYSEEGKGIFDSRKNVLGHMQQGGSPTPFDRNFATKMGAKAMNWMSGKIKESYRNGRIFANTPDSGCVLGMRKRALVFQPVTELKDQTDFEHRIPKEQWWLKLRPILKILAKYEIDLDTSDHAHLEHISRKRSGEAAV
Regarding B2, the binding entry is on record as “binds”.
